Measured values: patent publication US12584113B2, “Method of cell culture” (Pfizer Inc., priority 2014, dated 2026)

Experiment: Quantification of metabolites accumulating in HIPDOG fed-batch culture of GS-CHO cells (LC/MS, GC/MS, NMR)
Set-up: species or system Chinese hamster
Conditions: concentration of the metabolite accumulated on day 7 of the HIPDOG fed-batch culture, GS-CHO cell line A

Structure (SMILES): O=C(O)C(O)Cc1ccc(O)cc1 (stereo not drawn) [3-(4-hydroxyphenyl)lactate]
- Day 7 Concentration: 0.38 mM

Structure (SMILES): O=CO [Formate]
- Day 7 Concentration: 3.97 mM

Structure (SMILES): O=C(O)C(O)Cc1c[nH]c2ccccc12 (stereo not drawn) [Indolelactate]
- Day 7 Concentration: 0.26 mM
